Results published in patent publication US20110110852A1.
Results are given in words; binding and its absence hold for the method and conditions named. Binding seen in cells or lysates may run through a third protein. Some entries that bind do so weakly or less than the wild type.

Target: DR5 on cells, O14763
Test: DISC analysis on BJAB cells, co-purification with antibody-DR5 complexes, Western blot
Conditions: remark: other sources report otherwise

binding: binds
B1: caspase 8, Q14790 1-479 (enzyme, UniProt Q14790 1-479, looked up)
chain: MDFSRNLYDIGEQLDSEDLASLKFLSLDYIPQRKQEPIKDALMLFQRLQEKRMLEESNLSFLKELLFRINRLDLLITYLNTRKEEMERELQTPGRAQISAYRVMLYQISEEVSRSELRSFKFLLQEEISKCKLDDDMNLLDIFIEMEKRVILGEGKLDILKRVCAQINKSLLKIINDYEEFSKERSSSLEGSPDEFSNGEELCGVMTISDSPREQDSESQTLDKVYQMKSKPRGYCLIINNHNFAKAREKVPKLHSIRDRNGTHLDAGALTTTFEELHFEIKPHDDCTVEQIYEILKIYQLMDHSNMDCFICCILSHGDKGIIYGTDGQEAPIYELTSQFTGLKCPSLAGKPKVFFIQACQGDNYQKGIPVETDSEEQPYLEMDLSSPQTRYIPDEADFLLGMATVNNCVSYRNPAEGTWYIQSLCQSLRERCPRGDDILTILTEVNYEVSNKDDKKNMGKQMPQPTFTLRKKLVFPSD
